Record: PubChem BioAssay AID602196 (INSERM, 2012)
The whole screen tested about 23,000 reagents; this is a random part of them. 455 of them (2%) were called active. 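Active includes both protection and sensitisation; some change values fall well beyond the stated -50 to +50 range.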 Unmarked entries are inactive. Reagent sequences are not shown. Not stated in the record: the amount of reagent.

Aim: 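Genes whose knock-down alters cisplatin killing of lung cancer cells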
Cells: human A549 lung cancer cells
Reagent: siRNA pair against human genes
Duration: 48 h transfection before cisplatin; time from cisplatin to read-out not stated
Treatment: cisplatin at a dose killing half of control-siRNA cells; exact dose and duration not given
Measurement: 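Cisplatin cell death as a shift from the 50% death seen with control siRNA; siRNAs toxic or growth-blocking alone scored 0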
Direction: two-siRNA summed score (-2 to +2): higher = both siRNAs protect from cisplatin killing; -2 means both sensitise; mean protection from cisplatin (shift in death) and protection from cisplatin (shift in death), siRNA C and protection from cisplatin (shift in death), siRNA D: higher = protection from cisplatin killing
Call rule: 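siRNAs harmful alone (LDH or WST-1) get 0; others get +1 for less and -1 for more cisplatin killing; genes are active when the two siRNAs give the same sign, summing to ±2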
Calls: active = both siRNAs shift cisplatin killing the same way; inactive = no consistent shift, or siRNA harmful alone

| Gene | two-siRNA summed score (-2 to +2) | mean protection from cisplatin (shift in death) (%) | protection from cisplatin (shift in death), siRNA C (%) | protection from cisplatin (shift in death), siRNA D (%) |
| --- | --- | --- | --- | --- |
| COL26A1 | 0 | 7.2 | 9.8 | 4.6 |
| LOC388481 | 0 | 16.5 | 22.7 | 10.3 |
| ATPAF1 | 0 | -10.6 | -12.8 | -8.4 |
| KIAA0888 | 0 | 3.6 | -6.6 | 13.8 |
| FAM216B | 0 | 5.5 | 9 | 1.9 |
| CNIH3 | 0 | 8.8 | 3.2 | 14.4 |
| MINDY3 | 1 | 14 | 17.7 | 10.3 |
| LINC00315 | 0 | 28.8 | 36.1 | 21.4 |
| SLC1A4 | 1 | 2.6 | 20.4 | -15.1 |
| CYP2C9 | 0 | -2.6 | 2.4 | -7.5 |
| GCA | -1 | -3.5 | -22.7 | 15.8 |
| LINC02232 | 0 | 9.9 | 21.1 | -1.2 |
| TMEFF1 | 0 | -8.1 | -5.2 | -10.9 |
| NFYBP1 | 0 | 2.2 | 5.4 | -1 |
| RABGAP1 | 0 | 0.9 | 15.4 | -13.5 |
| LOC440000 | 0 | 11 | 19.6 | 2.4 |
| SCUBE1 | 0 | 0.9 | -22.7 | 24.4 |
| TCEAL9 | 0 | 7.8 | 17.2 | -1.7 |
| STOX2 | 0 | 8.3 | 7 | 9.6 |
| SLC25A27 | 0 | -3.9 | 7.6 | -15.5 |
| RPL7L1 | 0 | 3 | -3.5 | 9.6 |
| NRIP3 | 0 | -3.4 | 1.5 | -8.3 |
| SUPT16H | -1 | -7.2 | -19.6 | 5.3 |

Part of the list above, limited to “two-siRNA summed score (-2 to +2)”:
CYP2C9	0
GCA	-1
LINC02232	0
TMEFF1	0

Further results follow.
| Gene | two-siRNA summed score (-2 to +2) | mean protection from cisplatin (shift in death) (%) | protection from cisplatin (shift in death), siRNA C (%) | protection from cisplatin (shift in death), siRNA D (%) |
| --- | --- | --- | --- | --- |
| FAM43A | 0 | 7.9 | 4.7 | 11.1 |
| ADGRD2 | 0 | 12.2 | 14.2 | 10.2 |
| PPP4R1 | 0 | 2.8 | 8.1 | -2.5 |
| MPC1 | 0 | 4 | 3.6 | 4.5 |
| LPXN | 0 | -2.6 | -23.1 | 17.9 |
| LOC401876 | 1 | 8.3 | 12.6 | 3.9 |
| OPA3 | 0 | 1.4 | 1.6 | 1.2 |
| RXRG | 0 | -17.3 | -14.8 | -19.7 |
| DKFZp566H0824 | 0 | 2.3 | 6 | -1.5 |
| ZNRF1 | 0 | -0.3 | -20 | 19.4 |
| EXOSC7 | -1 | -5.8 | 2.2 | -13.9 |
| RNASEH2A | 0 | -1.1 | -3.7 | 1.4 |
| ABHD12 | 0 | -1 | -2.2 | 0.3 |
| BRCA2 | 0 | -7 | -10.1 | -4 |
| STK32C | 0 | 1.7 | -1.7 | 5.1 |
| LOC442442 | 0 | 10.8 | 6.7 | 14.9 |
